Record: PubChem BioAssay AID1259266 (Sanger Institute, 2017)
The whole screen tested 794 reagents; shown is a random part of them. In the full data, 16 (2%) are marked active. 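Calls reflect knock-down alone, not drug synergy; viability seems capped at 1 and z-scores at 0.585.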 Further read-outs or replicates are left out here. No sequences are given here. Not stated in the record: the amount of reagent, the time to read-out.

- Assay: 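Find knock-downs that kill LS123 cells or act with anchor drugs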 (primary screen)
- System: LS123 human colorectal cancer cells
- Reagent: siRNA pool against human genes
- Treatment: anchor drugs BYL719 (1 µM), cetuximab (5 µg/ml) or trametinib (10 nM), each chosen to barely slow growth alone; DMSO vehicle as the drug-free arm
- Measured: 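Viability relative to non-targeting control pools, replicate mean, with a robust z-score for knock-down alone and synergy scores for each anchor drug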
- Direction: robust z-score, knock-down alone: higher = more cells surviving after knock-down
- Hit rule: 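Essential when the robust z-score of the knock-down alone is below -3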
- Calls: active = essential (knock-down alone cuts viability); inactive = no change

Which result is listed for NRBP1?
robust z-score, knock-down alone: -0.959; activity call: inactive

For PAPSS2, what was measured?
robust z-score, knock-down alone: 0.585; activity call: inactive

For TSSK2, what does the deposit list?
robust z-score, knock-down alone: -2.07; activity call: inactive

What did the screen give for KDR?
robust z-score, knock-down alone: -0.754; activity call: inactive

With AMER1, what does the deposit list?
robust z-score, knock-down alone: 0.585; activity call: inactive

What is on record for COASY?
robust z-score, knock-down alone: -2; activity call: inactive

With CDK16, what was measured?
robust z-score, knock-down alone: 0.585; activity call: inactive

How did the screen score IP6K2?
robust z-score, knock-down alone: 0.253; activity call: inactive

With PRPS2, what was measured?
robust z-score, knock-down alone: -0.656; activity call: inactive

For MAP3K14, how do the results read?
robust z-score, knock-down alone: 0.585; activity call: inactive

How did the screen score PIP4K2C?
robust z-score, knock-down alone: -0.0785; activity call: inactive

With TK2, how do the results read?
robust z-score, knock-down alone: 0.0486; activity call: inactive

What is on record for SIK2?
robust z-score, knock-down alone: 0.585; activity call: inactive

With ACVRL1, what was measured?
robust z-score, knock-down alone: 0.005; activity call: inactive

With MARK2, how do the results read?
robust z-score, knock-down alone: -1; activity call: inactive

What is on record for TNK1?
robust z-score, knock-down alone: -0.392; activity call: inactive

With GUCY2F, what was measured?
robust z-score, knock-down alone: 0.585; activity call: inactive

What is on record for STYK1?
robust z-score, knock-down alone: -3.42; activity call: active

What did the screen give for MAP3K13?
robust z-score, knock-down alone: 0.0815; activity call: inactive

3 entries from above, arranged by “robust z-score, knock-down alone”, lowest first:
PRPS2: robust z-score, knock-down alone = -0.656; activity call = inactive
IP6K2: robust z-score, knock-down alone = 0.253; activity call = inactive
MAP3K14: robust z-score, knock-down alone = 0.585; activity call = inactive
